## Primary screen of a compound library

Amino acid sequences for entries named in this document (tags omitted). Residues count along the entry.
UniProt Q8IDJ8, 1-583: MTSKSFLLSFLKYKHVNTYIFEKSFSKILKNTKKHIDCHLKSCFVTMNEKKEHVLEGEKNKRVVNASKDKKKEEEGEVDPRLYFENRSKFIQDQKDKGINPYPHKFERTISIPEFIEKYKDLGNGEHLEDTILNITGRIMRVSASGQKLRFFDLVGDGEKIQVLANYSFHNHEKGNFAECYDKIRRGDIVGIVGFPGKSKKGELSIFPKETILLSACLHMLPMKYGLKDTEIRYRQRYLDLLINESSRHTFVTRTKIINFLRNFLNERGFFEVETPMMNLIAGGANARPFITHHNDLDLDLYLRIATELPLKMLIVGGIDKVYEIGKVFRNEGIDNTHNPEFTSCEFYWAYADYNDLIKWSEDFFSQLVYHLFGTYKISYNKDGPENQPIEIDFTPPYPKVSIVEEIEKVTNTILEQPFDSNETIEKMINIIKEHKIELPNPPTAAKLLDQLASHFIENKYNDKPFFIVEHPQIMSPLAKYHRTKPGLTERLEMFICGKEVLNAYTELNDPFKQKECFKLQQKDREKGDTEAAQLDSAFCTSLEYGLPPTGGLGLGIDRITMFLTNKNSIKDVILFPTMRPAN
UniProt P9WPC5, whole entry: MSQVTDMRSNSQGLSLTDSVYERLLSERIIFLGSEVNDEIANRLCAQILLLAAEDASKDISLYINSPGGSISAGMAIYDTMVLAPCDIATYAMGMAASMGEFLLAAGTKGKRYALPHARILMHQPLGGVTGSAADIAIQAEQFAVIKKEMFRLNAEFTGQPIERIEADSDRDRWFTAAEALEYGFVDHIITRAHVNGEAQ
UniProt P9WPC3, whole entry partner: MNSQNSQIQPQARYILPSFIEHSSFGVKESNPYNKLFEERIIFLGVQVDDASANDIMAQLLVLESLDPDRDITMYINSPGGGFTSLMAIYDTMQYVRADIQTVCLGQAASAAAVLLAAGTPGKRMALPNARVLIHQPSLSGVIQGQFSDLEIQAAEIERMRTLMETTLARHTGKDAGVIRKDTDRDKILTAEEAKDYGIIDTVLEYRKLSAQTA

PfKRS1: 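Lysine-tRNA ligase, Plasmodium falciparum 3D7 (UniProt Q8IDJ8). Enzyme assay of the cytosolic lysyl-tRNA synthetase in 384-well plates, read by luminescence. Tested at 30 µM. Direction is inferred from only a few compounds that gave an IC50; most scored high, so higher reads as stronger inhibition. Of about 69,000 compounds tested this way, about 49 (0.071%) reached 50% or more in at least one test.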
ClpP1P2: 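ClpP1P2, Mycobacterium tuberculosis (UniProt P9WPC5 and UniProt P9WPC3). Protease assay of ClpP1P2, read by the AMC dye that it sets free. Concentration: 50 µM. Direction is inferred from only a few compounds that gave an IC50; most scored high, so higher reads as stronger inhibition. Most other retested compounds had strongly negative values. Of about 69,000 compounds tested this way, about 10 (0.015%) reached 50% or more in at least one test.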

Values are the deposited “Percent Effect”, in %.
The record does not define 0% and 100%; most values in the screen are far below 50% and negative numbers occur (in some assays of this library far below -100).
The compounds are a random part of those screened.

| compound | PfKRS1 | ClpP1P2 |
|---|---|---|
| `Cn1cc(CN2CCOCC3(C2)CN(c2ccccc2)C(=O)CO3)cn1` (stereo not shown) | 3.8 | 3.712 |
| `CNC(=O)CCc1cc(C)nc(C2CCCCN2)n1` (stereo not shown) | 3.128 | 1.283 |
| `O=c1cc(CN2CCCC2)nc2n1CCCN(S(=O)(=O)C1CC1)C2` | 3.212 | -17.5 |
| `Fc1ccc(CNCCn2cccn2)cc1F` | 6.293 | 9.291 |
| `CCCNC(=O)CNc1cc(C#N)ccc1OCC` | 3.828 | 7.2 |
| `CN1CCC2(COCCN(Cc3ccc4c(c3)OCO4)C2)C1` (stereo not shown) | 2.76 | -0.4901 |
| `COCc1c(C(=O)N2CCCC(C(=O)c3ccccc3)C2)noc1C` (stereo not shown) | -2.634 | 6.142 |
| `CCc1nc(CC)n(CC(=O)N(C)CC(F)(F)F)n1` | 0.274 | -0.6498 |
| `Cc1ccsc1-c1nccn1CCN1CCCOC1=O` | -3.832 | -4.904 |
| `NC(=O)C1CCN(CCCNC(=O)Nc2nccs2)CC1` | 1.586 | 1.787 |
| `CCOC(=O)Cn1cnc2nc3n(c2c1=O)CCC3` | -0.8714 | -4.895 |
| `COc1cccc(COCC(O)CN(C)c2ccc(C)cc2C)c1` (stereo not shown) | 0.3231 | 2.739 |
| `O=C(c1ccnnc1)N1CCN2C[C@H](Oc3cccnc3)C[C@H]2C1` | 0.6476 | 11.44 |
| `Cc1ccc(N2CC[C@@H]3O[C@@H](COCc4cccnc4)CC[C@@H]32)nn1` | 4.403 | -5.779 |
| `CNC(=O)c1cccc(CNC(=O)C2CC(=O)N(CCN(C)C)C2)c1` (stereo not shown) | 8.743 | -11.23 |
| `CC(C)=CCN1CCN(Cc2cccc(C)n2)CC1CCO` (stereo not shown) | 2.363 | 5.721 |
| `Cc1cc(NC(=O)CN2CCn3c(C)nnc3C2)no1` | 0.7417 | -8.754 |
| `CCc1nc(C)sc1C(=O)N1CCN(c2ncccc2C)CC1` | 10.9 | -4.159 |
| `CCC(C)CS(=O)(=O)NCCc1csc(N2CCCC2)n1` (stereo not shown) | 1.662 | -4.569 |
| `CS(=O)(=O)N1C[C@@H](NC(=O)c2ccno2)[C@@H]2OCCC[C@@H]21` | 1.767 | -3.991 |
| `Cc1cnn(C2CN(Cc3nc(-c4ccsc4)no3)C2)c1` | -0.8151 | -12.45 |
| `CS(=O)(=O)c1cn[nH]c1C1CCCN(C(=O)Cn2cccn2)C1` (stereo not shown) | 1.291 | -10.73 |
| `CC(C)C1CN(C(=O)c2ccccc2)CCS1` (stereo not shown) | 0.6078 | -8.005 |
| `CN1CCN(Cc2cccnc2)C(=O)C12CCN(CC1CCOC1)CC2` (stereo not shown) | 3.981 | 6.894 |
| `O=c1ccc2c(n1Cc1ccncc1)CCN(Cc1ccoc1)CC2` | 4.853 | 22.31 |
| `Cc1c(NC(=O)c2ncn[nH]2)cccc1C(=O)NC(C)(C)C` | 2.447 | -5.551 |
| `COc1ccnc(NCc2ccccc2Cn2cccn2)n1` | 1.176 | 5.982 |
| `CN1CCN(C2CCN(CCCOc3ccc(F)cc3)CC2)C1=O` | -1.327 | 0.2364 |
| `Cc1ccnc(NCc2cn3c(C)csc3n2)n1` | 0.4328 | -5.281 |
| `CC(C)C(=O)NS(=O)(=O)c1ccc2c(c1)N(C)CCC2` | 2.463 | 2.493 |
| `CCN(Cc1nc2c(cnn2C)c(=O)[nH]1)c1ccc(F)cc1` | 4.595 | 3.101 |
| `Cc1noc2nc(C3CCN(Cc4cccnc4)CC3)cc(C(F)F)c12` | 6.637 | -6.654 |
| `CCCn1cnnc1-c1nc2c([nH]1)CC(c1ccc(Cl)cc1)CNC2=O` (stereo not shown) | -1.677 | 0.6948 |
| `O=C(CCn1ccccc1=O)Nc1ccc(F)c(Cl)c1` | 5.013 | 9.132 |
| `Cn1cccc1C(=O)N1CCC2(CC1)CN(S(C)(=O)=O)c1ccccc12` | -1.472 | -3.136 |
| `COc1cc(C(C)=O)ccc1SCC(=O)Nc1cccc(C)n1` | 1.565 | 1.011 |
| `Cc1nc2cc(O)nn2c(C)c1CCC(=O)NCc1cc(Br)cs1` | 0.357 | -5.38 |
| `Cc1cc(C)n(C2CCCN(C(=O)c3cn4cccnc4n3)C2)n1` (stereo not shown) | -0.6612 | -15.65 |
| `CCOc1ccc(NC(C)C(=O)NCCc2cccs2)cc1CO` (stereo not shown) | 4.007 | -14.43 |
| `O=C1CC(c2ccncc2)C2(CCN(Cc3nccs3)CC2)N1` (stereo not shown) | 3.23 | 1.109 |
| `CC(C)c1nc(-c2ccc(=O)[nH]n2)n(-c2ccc3c(c2)OCO3)n1` | 4.87 | -0.646 |
| `Cc1csc(CNC(=O)Nc2ccc3c(c2)OCO3)n1` | 1.236 | 4.427 |
| `Cc1cc(C(=O)N(CC(C)C)CC(O)c2ccc(F)cc2)[nH]n1` (stereo not shown) | 0.615 | -14.86 |
| `O=C(C1CCOCC1)N1CCN(CC2CC2)c2ncccc2C1` | -1.152 | -4.442 |
| `COc1ccc(F)c(CN2CCCC3(CCN(C(=O)CSC)C3)C2)c1` (stereo not shown) | 5.891 | -5.159 |
| `COc1ccc(CN2CCC3(CC(=O)N(c4cncnc4)C3)C2)cc1` (stereo not shown) | -1.944 | 7.32 |
| `Cc1cc(C)c(C#N)c(N2CCC3(CCCN(CCO)C3=O)C2)n1` (stereo not shown) | -6.778 | 5.199 |

5 of the entries, repeated:

compound	PfKRS1	ClpP1P2
O=c1cc(CN2CCCC2)nc2n1CCCN(S(=O)(=O)C1CC1)C2	3.212	-17.5
CN1CCN(C2CCN(CCCOc3ccc(F)cc3)CC2)C1=O	-1.327	0.2364
O=C(C1CCOCC1)N1CCN(CC2CC2)c2ncccc2C1	-1.152	-4.442
CS(=O)(=O)c1cn[nH]c1C1CCCN(C(=O)Cn2cccn2)C1 (stereo not shown)	1.291	-10.73
CC(C)c1nc(-c2ccc(=O)[nH]n2)n(-c2ccc3c(c2)OCO3)n1	4.87	-0.646

Source: ChEMBL document CHEMBL3988442, “University of Dundee, Small-Polar-MMV Screening Library” (2021).